Test results as given in publication PMC4778064.
These are yes or no findings as the source states them, for the method shown. Binding seen in cells or lysates may run through a third protein. Some binding calls cover weakened binding; strength is not graded here. One block for each molecule: values may come before it.

Sequences of proteins named here, by UniProt entry; tags and fusion partners are left off. Residues count along the entry.
UniProt D3Z7H4: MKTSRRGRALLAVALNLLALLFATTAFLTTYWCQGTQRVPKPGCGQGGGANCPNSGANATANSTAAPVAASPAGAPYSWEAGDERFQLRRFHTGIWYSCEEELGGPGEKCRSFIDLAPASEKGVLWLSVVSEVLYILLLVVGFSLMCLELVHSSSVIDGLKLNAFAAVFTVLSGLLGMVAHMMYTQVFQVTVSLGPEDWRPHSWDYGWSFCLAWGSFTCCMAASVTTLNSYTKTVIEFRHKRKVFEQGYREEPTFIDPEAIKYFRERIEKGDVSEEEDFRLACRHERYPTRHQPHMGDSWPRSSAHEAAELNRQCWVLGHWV
UniProt P19490, residues 19-907: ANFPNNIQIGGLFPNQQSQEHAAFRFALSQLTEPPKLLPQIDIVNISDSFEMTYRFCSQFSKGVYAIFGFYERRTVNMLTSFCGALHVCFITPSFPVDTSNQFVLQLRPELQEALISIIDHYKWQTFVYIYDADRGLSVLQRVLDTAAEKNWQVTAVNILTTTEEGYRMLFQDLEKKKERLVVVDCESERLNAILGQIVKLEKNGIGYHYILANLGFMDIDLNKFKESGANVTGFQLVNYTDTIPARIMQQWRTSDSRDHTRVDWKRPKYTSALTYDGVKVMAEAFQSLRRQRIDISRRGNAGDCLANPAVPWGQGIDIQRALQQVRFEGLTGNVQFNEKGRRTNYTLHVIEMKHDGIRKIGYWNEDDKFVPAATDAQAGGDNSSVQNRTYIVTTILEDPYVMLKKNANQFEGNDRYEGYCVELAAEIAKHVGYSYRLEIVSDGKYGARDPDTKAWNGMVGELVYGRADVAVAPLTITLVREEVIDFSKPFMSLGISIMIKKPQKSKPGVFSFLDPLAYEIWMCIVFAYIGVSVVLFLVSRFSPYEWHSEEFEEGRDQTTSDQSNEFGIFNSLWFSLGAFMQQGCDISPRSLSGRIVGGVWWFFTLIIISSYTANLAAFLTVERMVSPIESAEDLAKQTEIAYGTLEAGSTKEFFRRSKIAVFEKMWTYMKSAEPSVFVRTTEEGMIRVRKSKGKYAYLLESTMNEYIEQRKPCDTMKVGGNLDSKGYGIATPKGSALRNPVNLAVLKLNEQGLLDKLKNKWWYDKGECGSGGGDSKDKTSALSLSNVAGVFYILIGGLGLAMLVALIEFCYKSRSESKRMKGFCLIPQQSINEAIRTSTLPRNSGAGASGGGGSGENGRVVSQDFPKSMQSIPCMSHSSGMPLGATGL
UniProt P22756, residues 31-949: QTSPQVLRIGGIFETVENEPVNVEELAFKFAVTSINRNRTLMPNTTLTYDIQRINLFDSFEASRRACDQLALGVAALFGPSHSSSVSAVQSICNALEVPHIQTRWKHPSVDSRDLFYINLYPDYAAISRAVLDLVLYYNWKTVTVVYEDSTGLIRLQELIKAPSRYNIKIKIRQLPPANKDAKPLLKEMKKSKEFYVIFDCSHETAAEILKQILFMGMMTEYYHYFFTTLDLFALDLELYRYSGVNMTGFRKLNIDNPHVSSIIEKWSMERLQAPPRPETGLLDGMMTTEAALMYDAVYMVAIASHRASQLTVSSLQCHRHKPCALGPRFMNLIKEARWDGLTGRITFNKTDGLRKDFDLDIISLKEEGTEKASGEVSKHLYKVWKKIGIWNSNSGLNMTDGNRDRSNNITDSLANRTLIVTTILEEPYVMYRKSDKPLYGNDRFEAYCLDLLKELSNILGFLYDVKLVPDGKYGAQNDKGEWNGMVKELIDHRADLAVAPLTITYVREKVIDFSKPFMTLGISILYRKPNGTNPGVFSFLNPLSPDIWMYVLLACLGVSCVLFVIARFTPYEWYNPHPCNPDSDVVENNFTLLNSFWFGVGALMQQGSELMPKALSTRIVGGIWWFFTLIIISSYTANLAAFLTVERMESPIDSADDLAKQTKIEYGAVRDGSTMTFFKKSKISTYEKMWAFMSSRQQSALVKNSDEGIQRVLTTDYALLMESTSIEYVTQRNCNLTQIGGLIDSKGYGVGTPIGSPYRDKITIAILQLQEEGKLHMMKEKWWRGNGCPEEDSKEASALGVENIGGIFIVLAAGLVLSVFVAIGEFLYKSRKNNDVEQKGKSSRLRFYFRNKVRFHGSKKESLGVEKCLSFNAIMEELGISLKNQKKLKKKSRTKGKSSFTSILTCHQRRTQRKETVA

Tests used:
[1] = biological target: Flag–GSG1L (Germ Cell-Specific Gene 1-Like) (mouse) (UniProt D3Z7H4); experiment: co-IP; HEK293T cells co-expressing HA–GluA1 or HA–GluK1 with Flag–GSG1L; lysis buffer 25 mM Tris pH 7.5, 1% Triton X-100, 150 mM NaCl, 5% glycerol, 1 mM EDTA; anti-Flag M2 antibody and Protein G beads overnight at 4 °C; HA-tagged subunits probed with anti-HA
[2] = biological target: GluA1 (endogenous, rat hippocampus) (rat (endogenous in hippocampus)) (UniProt P19490); experiment: co-IP; immunoprecipitation from hippocampal lysates of +/+ and GSG1L −/− rats; which protein was precipitated not given

binding [1]: no binding
Molecule: HA–GluK1 (Kainate receptor GluK1 subunit) (from UniProt P22756 31-949)

binding [2]: binds
B1: CNIH2 (endogenous, rat hippocampus) (protein, UniProt Q5BJU5 1-160)
chain: MAFTFAAFCYMLTLVLCASLIFFVIWHIIAFDELRTDFKNPIDQGNPARARERLKNIERICCLLRKLVVPEYSIHGLFCLMFLCAAEWVTLGLNIPLLFYHLWRYFHRPADGSEVMYDAVSIMNADILNYCQKESWCKLAFYLLSFFYYLYSMVYTLVSF

binding [2]: binds
B2: TARP γ2 (endogenous, rat hippocampus) (protein, UniProt Q71RJ2 1-323)
chain: MGLFDRGVQMLLTTVGAFAAFSLMTIAVGTDYWLYSRGVCKTKSVSENETSKKNEEVMTHSGLWRTCCLEGNFKGLCKQIDHFPEDADYEADTAEYFLRAVRASSIFPILSVILLFMGGLCIAASEFYKTRHNIILSAGIFFVSAGLSNIIGIIVYISANAGDPSKSDSKKNSYSYGWSFYFGALSFIIAEMVGVLAVHMFIDRHKQLRATARATDYLQASAITRIPSYRYRYQRRSRSSSRSTEPSHSRDASPVGVKGFNTLPSTEISMYTLSRDPLKAATTPTATYNSDRDNSFLQVHNCIQKDSKDSLHANTANRRTTPV
